Laboratory results from patent US10568921B1, “Extract of Vicia faba beans” (priority 2018, dated 2020).
Some entries share one result that the patent states for a list of compounds.

Each compound was assayed on strychnine-induced convulsions (assay: Strychnine-induced convulsions in mice, i.p. pretreatment with test substance). Settings: other components identified in the extract fractions.
Type: in vivo, BALB/c mice

Row | Compound | Contribution to anticonvulsant activity (in words)
1 | CC(O)C(C)O (centres unmarked) [compound 6, 2,3-Butanediol] | did not contribute to anticonvulsant activity
2 | CC(O)CC(=O)NO (centres unmarked) [compound 7, Butaneamide 3-N-dihydroxy] | did not contribute to anticonvulsant activity
3 | CN(C)CC(=O)O [compound 8, N,N-Dimethyl glycine] | did not contribute to anticonvulsant activity
4 | CCN(CC)CC(=O)Nc1c(C)cccc1C [compound 9, Lidocaine] | did not contribute to anticonvulsant activity
5 | CNc1nc2ccccc2s1 [compound 11, 2-Benzothiazolamine, N-methyl-] | did not contribute to anticonvulsant activity
